Data published in patent publication US20240390508A1, “HUMAN TRANSFERRIN RECEPTOR BINDING PEPTIDE-DRUG CONJUGATE” (priority 2021, published 2024).
At least one structure is not confirmed: it was looked up by name or label, or the drawing left a doubt.

Sequences of proteins named here, by UniProt entry; tags and fusion partners are left off.
UniProt P02786, whole entry: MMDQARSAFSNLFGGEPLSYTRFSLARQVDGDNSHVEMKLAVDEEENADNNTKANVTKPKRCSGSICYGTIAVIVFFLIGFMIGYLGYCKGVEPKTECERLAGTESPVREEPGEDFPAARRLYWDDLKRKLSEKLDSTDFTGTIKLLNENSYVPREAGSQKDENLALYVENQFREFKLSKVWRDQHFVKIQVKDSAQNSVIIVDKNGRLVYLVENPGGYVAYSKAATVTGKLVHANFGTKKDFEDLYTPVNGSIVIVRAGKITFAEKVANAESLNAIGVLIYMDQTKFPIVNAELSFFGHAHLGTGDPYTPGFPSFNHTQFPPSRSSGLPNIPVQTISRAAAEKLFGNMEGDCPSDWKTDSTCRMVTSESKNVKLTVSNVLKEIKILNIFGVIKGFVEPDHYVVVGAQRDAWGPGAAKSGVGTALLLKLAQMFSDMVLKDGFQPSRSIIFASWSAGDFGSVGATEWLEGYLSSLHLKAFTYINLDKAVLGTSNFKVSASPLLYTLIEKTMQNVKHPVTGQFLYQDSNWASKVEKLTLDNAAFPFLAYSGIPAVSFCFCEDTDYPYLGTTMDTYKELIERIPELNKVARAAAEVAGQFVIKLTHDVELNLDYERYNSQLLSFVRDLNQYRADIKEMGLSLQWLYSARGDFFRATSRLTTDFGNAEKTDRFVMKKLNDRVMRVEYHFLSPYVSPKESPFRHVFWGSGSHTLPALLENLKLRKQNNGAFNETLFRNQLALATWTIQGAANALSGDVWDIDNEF

Target: transferrin receptor (hTfR) (Homo sapiens, UniProt P02786)
Assay: Intermolecular interaction evaluation test between transferrin receptor (hTfR) and peptide-nucleic acid conjugate using surface plasmon resonance (SPR)
Assay type: binding
Conditions: KD value to hTfR by SPR, Biacore T200, Single Cycle Kinetics, hTfR immobilized on NTA sensor chip

| Compound | Kd [nM] |
| --- | --- |
| CC[C@H](C)[C@@H]1NC(=O)[C@H](Cc2ccc(O)cc2)NC(=O)[C@H](Cc2ccc(O)cc2)NC(=O)[C@H](CC(N)=O)NC(=O)[C@H](Cc2c[nH]c3ccccc23)NC(=O)[C@H](C(C)C)NC(=O)[C@H](Cc2ccccc2)N(C)C(=O)[C@H](C(C)C)NC(=O)[C@H](C)NC(=O)CSC[C@@H](C(=O)NCC(=O)N[C@@H](CCCCn2nnc3c2CCC2C(CC3)C2COC(=O)NCCCCCCOP(=O)(O)OC[C@H]2O[C@@H](n3cnc4c(=O)[nH]c(N)nc43)[C@H](OC)[C@@H]2OP(=O)(S)OC[C@H]2O[C@@H](n3cnc4c(N)ncnc43)[C@H](OC)[C@@H]2OP(=O)(S)OC[C@H]2O[C@@H](n3cnc4c(N)ncnc43)[C@H](OC)[C@@H]2OP(=O)(S)OC[C@H]2O[C@@H](n3ccc(N)nc3=O)[C@H](OC)[C@@H]2OP(=O)(O)OC[C@H]2O[C@@H](n3cnc4c(N)ncnc43)[C@H](OC)[C@@H]2OP(=O)(O)OC[C@H]2O[C@@H](n3ccc(N)nc3=O)[C@H](OC)[C@@H]2OP(=O)(O)OC[C@H]2O[C@@H](n3ccc(N)nc3=O)[C@H](OC)[C@@H]2OP(=O)(O)OC[C@H]2O[C@@H](n3ccc(=O)[nH]c3=O)[C@H](OC)[C@@H]2OP(=O)(O)OC[C@H]2O[C@@H](n3cnc4c(N)ncnc43)C[C@@H]2OP(=O)(O)OC[C@H]2O[C@@H](n3cnc4c(N)ncnc43)C[C@@H]2OP(=O)(O)OC[C@H]2O[C@@H](n3cnc4c(N)ncnc43)C[C@@H]2OP(=O)(O)OC[C@H]2O[C@@H](n3ccc(=O)[nH]c3=O)[C@H](OC)[C@@H]2OP(=O)(O)OC[C@H]2O[C@@H](n3ccc(N)nc3=O)[C@H](OC)[C@@H]2OP(=O)(O)OC[C@H]2O[C@@H](n3cnc4c(N)ncnc43)[C@H](OC)[C@@H]2OP(=O)(O)OC[C@H]2O[C@@H](n3cnc4c(=O)[nH]c(N)nc43)[C@H](OC)[C@@H]2OP(=O)(O)OC[C@H]2O[C@@H](n3cnc4c(N)ncnc43)[C@H](OC)[C@@H]2OP(=O)(S)OC[C@H]2O[C@@H](n3cnc4c(N)ncnc43)[C@H](OC)[C@@H]2OP(=O)(S)OC[C@H]2O[C@@H](n3ccc(N)nc3=O)[C@H](OC)[C@@H]2OP(=O)(S)OC[C@H]2O[C@@H](n3ccc(N)nc3=O)[C@H](OC)[C@@H]2O)C(N)=O)NC(=O)[C@H](Cc2ccc(O)cc2)N(C)C(=O)[C@H](Cc2ccc(O)cc2)NC(=O)[C@H](CCCNC(=N)N)NC(=O)[C@H](CCCNC(=N)N)NC(=O)[C@H]([C@@H](C)CC)NC1=O (some centres unmarked) [Example 32] | < 100 |
| CC[C@H](C)[C@@H]1NC(=O)[C@H](Cc2ccc(O)cc2)NC(=O)[C@H](Cc2ccc(O)cc2)NC(=O)[C@H](CC(N)=O)NC(=O)[C@H](Cc2c[nH]c3ccccc23)NC(=O)[C@H](C(C)C)NC(=O)[C@H](Cc2ccccc2)N(C)C(=O)[C@H](C(C)C)NC(=O)[C@H](C)NC(=O)CSC[C@@H](C(=O)NCC(=O)N[C@@H](CCCCn2nnc3c2CCC2C(CC3)C2COC(=O)NCCCCCCOP(=O)(O)OC[C@H]2O[C@@H](n3cnc4c(=O)[nH]c(N)nc43)[C@H](OC)[C@@H]2OP(=O)(S)OC[C@H]2O[C@@H](n3cnc4c(N)ncnc43)[C@H](OC)[C@@H]2OP(=O)(S)OC[C@H]2O[C@@H](n3cnc4c(N)ncnc43)[C@H](OC)[C@@H]2OP(=O)(S)OC[C@H]2O[C@@H](n3ccc(N)nc3=O)[C@H](OC)[C@@H]2OP(=O)(O)OC[C@H]2O[C@@H](n3cnc4c(N)ncnc43)[C@H](OC)[C@@H]2OP(=O)(O)OC[C@H]2O[C@@H](n3ccc(N)nc3=O)[C@H](OC)[C@@H]2OP(=O)(O)OC[C@H]2O[C@@H](n3cnc4c(N)ncnc43)C[C@@H]2OP(=O)(O)OC[C@H]2O[C@@H](n3cnc4c(N)ncnc43)C[C@@H]2OP(=O)(O)OC[C@H]2O[C@@H](n3cnc4c(N)ncnc43)C[C@@H]2OP(=O)(O)OC[C@H]2O[C@@H](n3ccc(=O)[nH]c3=O)[C@H](OC)[C@@H]2OP(=O)(O)OC[C@H]2O[C@@H](n3ccc(=O)[nH]c3=O)[C@H](OC)[C@@H]2OP(=O)(O)OC[C@H]2O[C@@H](n3ccc(N)nc3=O)[C@H](OC)[C@@H]2OP(=O)(O)OC[C@H]2O[C@@H](n3cnc4c(N)ncnc43)[C@H](OC)[C@@H]2OP(=O)(O)OC[C@H]2O[C@@H](n3cnc4c(=O)[nH]c(N)nc43)[C@H](OC)[C@@H]2OP(=O)(O)OC[C@H]2O[C@@H](n3cnc4c(N)ncnc43)[C@H](OC)[C@@H]2OP(=O)(O)OC[C@H]2O[C@@H](n3cnc4c(N)ncnc43)[C@H](OC)[C@@H]2OP(=O)(O)OC[C@H]2O[C@@H](n3cnc4c(N)ncnc43)C[C@@H]2OP(=O)(O)OC[C@H]2O[C@@H](n3cnc4c(N)ncnc43)C[C@@H]2OP(=O)(O)OC[C@H]2O[C@@H](n3cnc4c(N)ncnc43)C[C@@H]2OP(=O)(O)OC[C@H]2O[C@@H](n3ccc(N)nc3=O)[C@H](OC)[C@@H]2OP(=O)(O)OC[C@H]2O[C@@H](n3cnc4c(=O)[nH]c(N)nc43)[C@H](OC)[C@@H]2OP(=O)(O)OC[C@H]2O[C@@H](n3cnc4c(=O)[nH]c(N)nc43)[C@H](OC)[C@@H]2OP(=O)(S)OC[C@H]2O[C@@H](n3cnc4c(N)ncnc43)[C@H](OC)[C@@H]2OP(=O)(S)OC[C@H]2O[C@@H](n3cnc4c(=O)[nH]c(N)nc43)[C@H](OC)[C@@H]2OP(=O)(S)OC[C@H]2O[C@@H](n3cnc4c(=O)[nH]c(N)nc43)[C@H](OC)[C@@H]2O)C(N)=O)NC(=O)[C@H](Cc2ccc(O)cc2)N(C)C(=O)[C@H](Cc2ccc(O)cc2)NC(=O)[C@H](CCCNC(=N)N)NC(=O)[C@H](CCCNC(=N)N)NC(=O)[C@H]([C@@H](C)CC)NC1=O (some centres unmarked) [Example 33] | < 100 |
